Assay results: publication PMC12402098, “YTHDF3 recognizes DNA N6-methyladenine and recruits ALKBH1 for 6mA removal from genomic DNA” (The EMBO Journal, 2025)
Construct, isoform or probe ends are uncertain for at least one entry. At least one result comes from cells or an extract, where the contact may be indirect. Tags and fusion partners may be left off the protein sequences shown.

Biological target: T1, YTHDF3 MTbind, immunopurified L455M,L461V,V482A,A487T,Y488C,E502D,K504R (Homo sapiens) (UniProt Q7Z739)
T1 sequence (looked up, limits assumed): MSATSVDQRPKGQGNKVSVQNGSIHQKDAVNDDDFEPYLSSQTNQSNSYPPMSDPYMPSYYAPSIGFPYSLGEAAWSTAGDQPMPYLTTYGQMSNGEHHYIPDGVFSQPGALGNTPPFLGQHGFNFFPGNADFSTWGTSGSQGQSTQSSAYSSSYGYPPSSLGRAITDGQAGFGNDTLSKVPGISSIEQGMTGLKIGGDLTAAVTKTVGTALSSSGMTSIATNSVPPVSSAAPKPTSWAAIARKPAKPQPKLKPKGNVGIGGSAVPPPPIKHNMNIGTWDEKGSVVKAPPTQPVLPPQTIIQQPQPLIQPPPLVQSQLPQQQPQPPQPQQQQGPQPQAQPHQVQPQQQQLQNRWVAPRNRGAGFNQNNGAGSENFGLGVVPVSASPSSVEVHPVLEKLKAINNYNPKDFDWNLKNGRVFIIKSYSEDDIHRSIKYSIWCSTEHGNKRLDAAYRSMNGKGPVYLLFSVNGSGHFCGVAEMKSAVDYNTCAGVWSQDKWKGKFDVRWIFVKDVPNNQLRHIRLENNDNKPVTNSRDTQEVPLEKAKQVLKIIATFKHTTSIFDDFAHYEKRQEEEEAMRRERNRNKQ
Test: pull-down
Conditions: N6-methyl-dA at A10 of strand 1; pull-down: streptavidin-agarose, 1 nmol DNA, 30 C 30 min; protein in a lysate after overexpression; protein details: Flag; label: 3' biotin strand 1

“CTATGTTTCATGTACCGCCA (double strand) [6mA-ds-oligo]”: binds.
